Source: PubChem BioAssay (NCATS)
The other results are listed elsewhere or left out. These are further read-outs of the screen, such as a control signal, another cell line or another target. No call is given for them. Compounds called inactive in the main read-out are mostly missing here. Words in brackets tell the shape of the fitted curve; partial curves, single points and poor fits give uncertain potencies.

Test: qHTS for identification of novel therapeutic agents for treatment of microphthalmiaassociated transcription factor (MiT) renal cell carcinoma (RCC) (AID 1963991)
Conditions: TFE3-RCC viability, CellTiter-Glo, 48 h; measured here: UOK124 cell viability
Summary of the method: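 UOK109/UOK124/UOK145 (TFE3 fusions, three partners); 500 cells/well; MIPE v4.0, 1912 cpds, 11 conc.; 48 h, 37 C; CellTiter-Glo, 15 min RT; lum. Norm.: DMSO 100%, empty 0%.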
With `CC(=O)Nc1cccc(-n2c(=O)n(C3CC3)c(=O)c3c(Nc4ccc(I)cc4F)n(C)c(=O)c(C)c32)c1` the AC50 was 935 nM [falling, partial curve].
In the case of `CC(C)C[C@H](NC(=O)[C@H](Cc1ccccc1)NC(=O)c1cnccn1)B(O)O`, the AC50 is reported as 59 nM [falling, full curve].
For `CC(C)C[C@H](NC(=O)CNC(=O)c1cc(Cl)ccc1Cl)B(O)O`, the AC50 was 590 nM [falling, full curve].
With `CC(C)C[C@H](NC(=O)[C@@H](NC(=O)c1cccc(-c2ccccc2)n1)[C@@H](C)O)B(O)O` the AC50 was 209 nM [falling, full curve].

Same assay, conditions: TFE3-RCC viability, CellTiter-Glo, 48 h; measured here: UOK145 cell viability
With `CC(=O)Nc1cccc(-n2c(=O)n(C3CC3)c(=O)c3c(Nc4ccc(I)cc4F)n(C)c(=O)c(C)c32)c1` the AC50 was 526 nM [falling, partial curve, poor fit].
With `CC(C)C[C@H](NC(=O)[C@H](Cc1ccccc1)NC(=O)c1cnccn1)B(O)O` the AC50 was 16.6 nM [falling, full curve].
For `O=c1[nH]cc(F)c(=O)[nH]1`, the AC50 was 10500 nM [falling, partial curve].
For `CC(C)C[C@H](NC(=O)CNC(=O)c1cc(Cl)ccc1Cl)B(O)O`, the AC50 was 132 nM [falling, full curve].
In the case of `CC(C)C[C@H](NC(=O)[C@@H](NC(=O)c1cccc(-c2ccccc2)n1)[C@@H](C)O)B(O)O`, the AC50 is reported as 46.9 nM [falling, full curve].
